The text below walks through data of patent US20230144203A1 (SHANGHAI SENHUI MEDICINE CO., LTD., priority 2020, published 2023).

Amino acid sequences for entries named in this document (tags omitted). Residues count along the entry.
UniProt P40259, residues 29-159: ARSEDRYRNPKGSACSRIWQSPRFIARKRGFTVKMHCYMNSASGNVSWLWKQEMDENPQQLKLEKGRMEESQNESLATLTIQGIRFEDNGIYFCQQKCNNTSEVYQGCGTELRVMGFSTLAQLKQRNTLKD

Experiment [1] has as its target human CD79B antigen (recombinant, coated in ELISA) (human) (UniProt P40259). The experiment in a line: ELISA, FACS, SPR (no details or numbers given). (An ELISA detects its analyte on a solid surface through an enzyme-linked reagent.)
Experiment [2] shares this target. Briefly: ELISA, purified antibody diluted 1:10 from 100 nM on coated antigen 1 µg/mL.

These are yes or no findings as the source states them, for the method shown. Some results given as binding are weak or reduced against the parent protein; the word gives no strength.

B1: humanized antibody hAb015-10 (antibody, human IgG1, kappa, V domains shown)
VH: EVQLVQSGAEVKKPGSSVKVSCKASGSSFSSYGINWVKQAPGQGLEWIGEIFPRSGNTYYNEKFEGRATLTADKSTSTAYMELRSLRSEDTAVYYCAKGDLGDFDYWGQGTTVTVSS
VL: DFVMTQTPLSLPVTPGEPASISCRSSQSIVHSDGNTYFEWYLQKPGQSPKLLIYKVSNRFSGVPDRFSGSGSGTDFTLKISRVEAEDVGVYYCFQGSHVPWTFGGGTKVEIKR
For B1, in experiment [1], the binding result is on record as “binds”.

B2: humanized antibody hAb017-10 (antibody, human IgG1, kappa, V domains shown)
VH: EVQLVQSGAEVKKPGASVKVSCKASGYTFTTYGINWVKQAPGQGLEWIGEIYPRSGNIYYNEKFKGKATLTADKSTSTAYMELRSLRSDDTAVYYCARGSDYDGDFAYWGQGTLVTVSS
VL: DVVMTQTPLSLPVTPGEPASISCRSSQSIVHHDGNTYLEWYLQKPGQSPQLLIYKVSNRFSGVPDRFSGSGSGTDFTLKISRVEAEDVGVYYCFQGSHVPWTFGGGTKVEIKR
As for B2, the binding result in experiment [1] was “binds”.

B3: monoclonal antibody mAb017 of mouse hybridoma cell (antibody, V domains shown)
VH: QVQLQQSGAELARPGASVKLSCKASGYTFTTYGINWVKQRTGQGLEWIGEIYPRSGNIYYNEKFKGKATLTADKSSSTAYMELRSLTSEDSAVYFCARGSDYDGDFAYWGQGTLVTVSA
VL: DVLMTQTPLSLPVSLGDQASISCRSSQSIVHHDGNTYLEWYLQKPGQSPKLLIYKVSNRFSGVPDRFSGSGSGTDFTLKISRVEAEDLGVYYCFQGSHVPWTFGGGTQLEIK
For B3, in experiment [2], the binding entry is recorded as “binds”.

B4: monoclonal antibody mAb015 of mouse hybridoma cell (antibody, V domains shown)
VH: QVQLQQSGAELARPGASVKLSCKASGSSFTSYGINWVKQRTGQGLEWIGEIFPRSGNTYYNEKFEGKATLTADKSSSTAYMELRSLTSEDSAVYFCAKGDLGDFDYWGQGTTLTVSS
VL: DFLMTQTPLSLPVRLGDQASISCRSSQSIVHSDGNTYFEWYLQKPGQSPKLLIYKVSNRFSGVPDRFSGSGSGTDFTLKISRVEAEDLGVYYCFQGSHVPWTFGGGTKLEIK
With B4, the binding result in experiment [2] is on record as “binds”.
